# No constants are given. Whether binding was seen depends on the method and setting. In cells and extracts the contact can be indirect. Sequences can lack the tags named with a protein.
# Protein sequences, listed by entry. Tags and fused reporters are not part of them.
# UniProt O75417: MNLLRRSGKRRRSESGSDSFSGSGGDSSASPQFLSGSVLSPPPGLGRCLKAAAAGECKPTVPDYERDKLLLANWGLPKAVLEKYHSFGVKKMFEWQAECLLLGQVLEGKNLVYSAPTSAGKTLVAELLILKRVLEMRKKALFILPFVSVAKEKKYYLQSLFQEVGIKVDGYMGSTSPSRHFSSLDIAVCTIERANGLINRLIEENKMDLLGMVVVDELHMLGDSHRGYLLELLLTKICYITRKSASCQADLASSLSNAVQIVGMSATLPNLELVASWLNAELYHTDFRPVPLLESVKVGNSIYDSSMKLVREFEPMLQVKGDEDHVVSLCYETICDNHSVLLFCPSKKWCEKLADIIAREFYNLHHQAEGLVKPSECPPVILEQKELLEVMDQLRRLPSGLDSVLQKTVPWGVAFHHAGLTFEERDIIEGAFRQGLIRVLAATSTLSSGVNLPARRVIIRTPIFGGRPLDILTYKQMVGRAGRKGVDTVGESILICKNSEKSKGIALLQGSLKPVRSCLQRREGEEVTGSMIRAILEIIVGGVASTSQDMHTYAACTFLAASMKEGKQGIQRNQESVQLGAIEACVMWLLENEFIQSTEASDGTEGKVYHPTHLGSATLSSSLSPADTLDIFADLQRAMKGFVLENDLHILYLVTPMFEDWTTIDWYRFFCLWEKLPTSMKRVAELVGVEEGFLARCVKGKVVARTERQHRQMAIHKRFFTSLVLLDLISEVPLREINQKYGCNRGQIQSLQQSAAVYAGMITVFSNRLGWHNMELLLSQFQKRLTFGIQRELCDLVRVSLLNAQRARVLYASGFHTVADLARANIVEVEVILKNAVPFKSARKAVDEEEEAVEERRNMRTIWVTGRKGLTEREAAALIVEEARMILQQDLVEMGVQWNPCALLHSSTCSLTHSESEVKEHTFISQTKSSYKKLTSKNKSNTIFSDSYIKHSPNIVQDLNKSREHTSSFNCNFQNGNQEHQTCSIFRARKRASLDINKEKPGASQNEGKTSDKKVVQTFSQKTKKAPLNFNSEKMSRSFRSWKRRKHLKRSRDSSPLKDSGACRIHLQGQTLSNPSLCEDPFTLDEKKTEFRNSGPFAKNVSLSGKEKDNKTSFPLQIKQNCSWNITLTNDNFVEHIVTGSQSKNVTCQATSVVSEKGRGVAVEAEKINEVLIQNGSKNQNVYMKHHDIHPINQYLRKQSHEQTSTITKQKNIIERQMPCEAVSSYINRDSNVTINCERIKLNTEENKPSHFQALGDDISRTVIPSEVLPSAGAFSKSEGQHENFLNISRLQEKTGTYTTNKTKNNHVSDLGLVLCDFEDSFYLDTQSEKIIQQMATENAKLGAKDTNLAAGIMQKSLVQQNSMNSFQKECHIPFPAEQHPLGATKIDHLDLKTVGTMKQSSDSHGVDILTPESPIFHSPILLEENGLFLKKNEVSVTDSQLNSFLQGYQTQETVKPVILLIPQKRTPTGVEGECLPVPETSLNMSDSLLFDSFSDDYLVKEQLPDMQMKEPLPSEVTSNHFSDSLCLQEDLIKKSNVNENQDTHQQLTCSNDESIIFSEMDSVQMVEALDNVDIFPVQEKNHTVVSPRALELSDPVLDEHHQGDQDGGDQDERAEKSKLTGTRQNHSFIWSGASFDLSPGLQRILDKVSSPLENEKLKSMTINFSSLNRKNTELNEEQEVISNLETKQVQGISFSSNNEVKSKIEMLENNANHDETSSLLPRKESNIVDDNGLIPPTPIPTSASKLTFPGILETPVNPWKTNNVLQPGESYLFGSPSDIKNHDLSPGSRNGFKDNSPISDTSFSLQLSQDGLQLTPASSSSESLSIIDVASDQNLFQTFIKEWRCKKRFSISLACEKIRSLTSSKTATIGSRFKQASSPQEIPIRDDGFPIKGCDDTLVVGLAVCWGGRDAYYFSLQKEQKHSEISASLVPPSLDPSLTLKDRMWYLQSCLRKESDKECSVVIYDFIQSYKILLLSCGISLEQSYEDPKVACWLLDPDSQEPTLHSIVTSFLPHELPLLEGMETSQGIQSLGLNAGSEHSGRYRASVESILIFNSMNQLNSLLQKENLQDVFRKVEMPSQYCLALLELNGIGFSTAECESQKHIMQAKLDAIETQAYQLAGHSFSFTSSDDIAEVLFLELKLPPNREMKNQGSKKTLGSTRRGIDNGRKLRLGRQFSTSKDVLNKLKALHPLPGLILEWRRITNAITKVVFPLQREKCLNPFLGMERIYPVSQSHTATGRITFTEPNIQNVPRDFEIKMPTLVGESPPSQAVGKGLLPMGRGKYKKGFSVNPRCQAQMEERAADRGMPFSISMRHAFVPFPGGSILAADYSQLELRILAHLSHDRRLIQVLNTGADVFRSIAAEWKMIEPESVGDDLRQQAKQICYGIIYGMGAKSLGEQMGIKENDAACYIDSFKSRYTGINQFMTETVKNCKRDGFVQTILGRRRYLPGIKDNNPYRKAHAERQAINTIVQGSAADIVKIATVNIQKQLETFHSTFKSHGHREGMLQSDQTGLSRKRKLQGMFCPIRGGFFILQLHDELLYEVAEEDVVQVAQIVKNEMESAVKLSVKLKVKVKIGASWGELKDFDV
# Molecular target: FLAG-Polθ (full-length human POLQ in pLPC-Flag vector) (human) (UniProt O75417)
# Assay: co-IP
row,Binder,binding
1,"RAD9A-MYC (pCMV-RAD9A-MYC) (protein, UniProt Q99638 1-391) MKCLVTGGNVKVLGKAVHSLSRIGDELYLEPLEDGLSLRTVNSSRSAYACFLFAPLFFQQYQAATPGQDLLRCKILMKSFLSVFRSLAMLEKTVEKCCISLNGRSSRLVVQLHCKFGVRKTHNLSFQDCESLQAVFDPASCPHMLRAPARVLGEAVLPFSPALAEVTLGIGRGRRVILRSYHEEEADSTAKAMVTEMCLGEEDFQQLQAQEGVAITFCLKEFRGLLSFAESANLNLSIHFDAPGRPAIFTIKDSLLDGHFVLATLSDTDSHSQDLGSPERHQPVPQLQAHSTPHPDDFANDDIDSYMIAMETTIGNEGSRVLPSISLSPGPQPPKSPGPHSEEEDEAEPSTVPGTPPPKKFRSLFFGSILAPVRSPQGPSPVLAEDSEGEG",no binding
2,"HUS1-3XFLAG (pCMV14-HUS1-3XFLAG) (protein, UniProt O60921 1-280) MKFRAKIVDGACLNHFTRISNMIAKLAKTCTLRISPDKLNFILCDKLANGGVSMWCELEQENFFNEFQMEGVSAENNEIYLELTSENLSRALKTAQNARALKIKLTNKHFPCLTVSVELLSMSSSSRIVTHDIPIKVIPRKLWKDLQEPVVPDPDVSIYLPVLKTMKSVVEKMKNISNHLVIEANLDGELNLKIETELVCVTTHFKDLGNPPLASESTHEDRNVEHMAEVHIDIRKLLQFLAGQQVNPTKALCNIVNNKMVHFDLLHEDVSLQYFIPALS",no binding
3,"RAD1-HA (pCMV-RAD1-HA) (protein, UniProt O60671 1-282) MPLLTQQIQDEDDQYSLVASLDNVRNLSTILKAIHFREHATCFATKNGIKVTVENAKCVQANAFIQAGIFQEFKVQEESVTFRINLTVLLDCLSIFGSSPMPGTLTALRMCYQGYGYPLMLFLEEGGVVTVCKINTQEPEETLDFDFCSTNVINKIILQSEGLREAFSELDMTSEVLQITMSPDKPYFRLSTFGNAGSSHLDYPKDSDLMEAFHCNQTQVNRYKISLLKPSTKALVLSCKVSIRTDNRGFLSLQYMIRNEDGQICFVEYYCCPDEEVPESES",no binding
